# Source: article PMC11210491
# Chains of the proteins cited; added tags and fusions are not shown.
# UniProt P37238: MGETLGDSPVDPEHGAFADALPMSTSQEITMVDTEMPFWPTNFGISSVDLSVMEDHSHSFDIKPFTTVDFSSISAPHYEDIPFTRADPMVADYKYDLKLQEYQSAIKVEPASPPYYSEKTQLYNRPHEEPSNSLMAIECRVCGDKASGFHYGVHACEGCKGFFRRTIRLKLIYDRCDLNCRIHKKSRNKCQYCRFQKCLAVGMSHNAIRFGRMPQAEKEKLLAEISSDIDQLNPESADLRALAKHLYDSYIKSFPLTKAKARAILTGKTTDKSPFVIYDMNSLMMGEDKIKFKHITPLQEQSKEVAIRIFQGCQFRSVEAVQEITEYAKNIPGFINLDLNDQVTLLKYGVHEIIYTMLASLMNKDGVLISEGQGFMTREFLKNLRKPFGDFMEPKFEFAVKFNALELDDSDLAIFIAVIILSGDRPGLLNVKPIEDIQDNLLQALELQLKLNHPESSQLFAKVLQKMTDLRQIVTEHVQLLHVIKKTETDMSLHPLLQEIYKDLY
# UniProt Q9QXG4: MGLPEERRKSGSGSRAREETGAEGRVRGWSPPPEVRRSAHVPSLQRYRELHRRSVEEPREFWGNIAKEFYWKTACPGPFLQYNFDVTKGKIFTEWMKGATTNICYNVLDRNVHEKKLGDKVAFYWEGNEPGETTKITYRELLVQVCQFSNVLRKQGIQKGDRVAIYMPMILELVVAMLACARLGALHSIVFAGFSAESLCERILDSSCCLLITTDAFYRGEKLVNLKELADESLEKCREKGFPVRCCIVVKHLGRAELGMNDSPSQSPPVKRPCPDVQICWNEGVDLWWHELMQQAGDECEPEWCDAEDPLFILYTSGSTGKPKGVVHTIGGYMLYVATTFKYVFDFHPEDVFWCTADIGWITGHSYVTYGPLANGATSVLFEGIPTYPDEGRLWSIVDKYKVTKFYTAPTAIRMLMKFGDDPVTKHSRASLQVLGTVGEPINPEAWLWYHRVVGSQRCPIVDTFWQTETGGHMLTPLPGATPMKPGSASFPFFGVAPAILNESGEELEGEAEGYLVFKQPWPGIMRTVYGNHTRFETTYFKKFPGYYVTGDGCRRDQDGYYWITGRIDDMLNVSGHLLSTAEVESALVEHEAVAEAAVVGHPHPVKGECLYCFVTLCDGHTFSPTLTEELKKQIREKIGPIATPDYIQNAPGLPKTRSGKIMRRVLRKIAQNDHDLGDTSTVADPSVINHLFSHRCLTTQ
# Results are given in words; binding and its absence hold for the method and conditions named. Binding seen in cells or lysates may run through a third protein. Some results given as binding are weak or reduced against the parent protein; the word gives no strength.
# Biological target: PPARγ, endogenous in mouse hippocampus (mouse (endogenous in hippocampus)) (UniProt P37238)
# Assay: co-IP; whole-cell lysates from the mouse hippocampus, endogenous proteins, immunoblot
substance,measurement,value
"ACSS2, endogenous in mouse hippocampus (from UniProt Q9QXG4 1-701) (enzyme)",binding,binds
